The source of these data is publication PMC5996148.

Among the test systems are EPO (human); ERAS (human); ERBB2IP (human); ERC1 (human); ERCC1 (human); ERCC6L (human); ERG (human); ERGIC1 (human); ERGIC3 (human); ERP29 (human).
What all share (assay): protein microarray (ProtoArray v5.0), streptavidin-Alexa Fluor 647
What all share (conditions): 3'-biotin; 20 mM Tris (pH 7.5), 5 mM MgCl2, 100 mM KCl, 0.1% Tween-20, A/T-rich and random oligonucleotide blockers; temperature not stated; high values mean tight binding

This is one part of the list.

For “GGGAGGCTGAGGCAGG [G4-1 biotinylated (PQS2)]”, the binding signal in the assay on EPO (human) was -0.283 z-score; in the assay with ERAS (human), -0.299 z-score; with ERBB2IP (human) it was -0.301 z-score; in the assay on ERC1 (human), -0.261 z-score; in the assay on ERCC1 (human), -0.349 z-score; with ERCC6L (human), -0.352 z-score. The binding signal in the assay on ERG (human) was -0.337 z-score; with ERGIC1 (human), -0.34 z-score; with ERGIC3 (human), -0.317 z-score; with ERP29 (human) it was -0.308 z-score.
